PubChem BioAssay AID1259308, NCATS, 2017
Test: 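Candidate targets for better recombinant protein yield in mammalian cells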 (primary screen). Cells: human HEK293 embryonic kidney cells stably expressing firefly luciferase (HEK-CMV-Luc2-Hygro). Reagent: single siRNA against human genes, 0.8 pmol siRNA per well. Timing: 72 h. Measurement: 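Luciferase light (ONE-Glo) measured on one replicate plate set and viability (CellTiter-Glo) on the other, scaled to a negative control siRNA, with robust z-scores and luciferase per cell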. Direction: total luciferase, z-score and total luciferase, % of control: higher = more reporter protein produced; luciferase per cell, z-score: higher = more reporter output per viable cell. Rule for the call: 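An siRNA counts as active if its total luciferase robust z-score exceeds 3; genes with two or more such siRNAs out of three were retested with fresh siRNAs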. Calls: active = raised luciferase; inactive = no rise.
Shown is a random part of about 59,000 deposited reagents. In the full data, about 1,510 (2.6%) got an active call. 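Calls use total luciferase alone and ignore viability, so some active siRNAs may act by altering cell number.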 A number with no mark means an inactive call. The numbers tell different reagents against one gene apart. Further read-outs or replicates are left out here. Reagent sequences are not shown.

| target | reagent no. | total luciferase, z-score | total luciferase, % of control | luciferase per cell, z-score |
| --- | --- | --- | --- | --- |
| CMTM4 | 1 | 0.207 | 86 | 0.407 |
| CMTM4 | 2 | 0.848 | 98.7 | 0.934 |
| CMTM4 | 3 | 1.08 | 103 | 0.909 |
| UBXN11 | 1 | 2.58 | 133 | 3.51 |
| UBXN11 | 2 | -0.206 | 77.8 | -0.442 |
| UBXN11 | 3 | 0.624 | 94.3 | 0.95 |
| TMEM132E | 1 | 0.0366 | 82.6 | -0.0259 |
| TMEM132E | 2 | 0.093 | 83.7 | 0.363 |
| TMEM132E | 3 | 0.185 | 85.6 | 0.0736 |
| UGT1A1 | 1 | -0.669 | 68.6 | -0.668 |
| UGT1A1 | 2 | -0.184 | 78.2 | 0.388 |
| UGT1A1 | 3 | 1.24 | 107 | 1.04 |
| SH2D1B | 1 | -1.21 | 57.7 | -0.423 |
| SH2D1B | 2 | -0.504 | 71.9 | -0.549 |
| SH2D1B | 3 | -0.0877 | 80.1 | 0.588 |
| WDR81 | 1 | 0.595 | 93.7 | 0.38 |
| WDR81 | 2 | 0.592 | 93.7 | 0.62 |
| WDR81 | 3 | 1.2 | 106 | 1.32 |
| THAP10 | 1 | 0.0616 | 83.1 | -0.493 |
| THAP10 | 2 | -0.512 | 71.7 | -0.877 |
| THAP10 | 3 | -0.339 | 75.1 | -0.955 |
| ENTPD3 | 1 | 0.988 | 102 | 0.729 |
| ENTPD3 | 2 | 0.467 | 91.2 | 0.437 |
| ENTPD3 | 3 | 0.369 | 89.2 | 0.096 |
| IGFN1 | 1 | -1.22 | 57.7 | -1.61 |
| IGFN1 | 2 | -0.502 | 71.9 | -0.395 |
| IGFN1 | 3 | -1.39 | 54.3 | -1.28 |
| REP15 | 1 | -0.703 | 67.9 | -0.797 |
| REP15 | 2 | -2.29 | 36.4 | -2.29 |
| REP15 | 3 | 0.868 | 99.2 | 0.425 |

The list goes on (8 carried over from the part before).
| target | reagent no. | total luciferase, z-score | total luciferase, % of control | luciferase per cell, z-score |
| --- | --- | --- | --- | --- |
| ENTPD3 | 2 | 0.467 | 91.2 | 0.437 |
| ENTPD3 | 3 | 0.369 | 89.2 | 0.096 |
| IGFN1 | 1 | -1.22 | 57.7 | -1.61 |
| IGFN1 | 2 | -0.502 | 71.9 | -0.395 |
| IGFN1 | 3 | -1.39 | 54.3 | -1.28 |
| REP15 | 1 | -0.703 | 67.9 | -0.797 |
| REP15 | 2 | -2.29 | 36.4 | -2.29 |
| REP15 | 3 | 0.868 | 99.2 | 0.425 |
| BORA | 1 | -0.201 | 77.9 | 0.22 |
| BORA | 2 | -0.0477 | 80.9 | -0.265 |
| BORA | 3 | -0.947 | 63 | -0.64 |
| RRP9 | 1 | -1.76 | 46.9 | -1.66 |
| RRP9 | 2 | -0.942 | 63.1 | -0.741 |
| RRP9 | 3 | -0.905 | 63.9 | -0.123 |
| NOC2L | 1 | -0.389 | 74.1 | 0.752 |
| NOC2L | 2 | -0.54 | 71.2 | -0.307 |
| NOC2L | 3 | 0.341 | 88.7 | 0.192 |
| IL7 | 1 | 0.664 | 95.1 | 0.421 |
| IL7 | 2 | -0.445 | 73 | -0.506 |
| IL7 | 3 | -0.423 | 73.5 | -0.787 |
| ZNF777 | 1 | 0.107 | 84 | -0.286 |
| ZNF777 | 2 | -0.566 | 70.6 | -0.875 |
| ZNF777 | 3 | 0.462 | 91.1 | 0.296 |
| SYTL1 | 1 | 0.0214 | 82.3 | 0.00434 |
| SYTL1 | 2 | -0.527 | 71.4 | -1.01 |
| SYTL1 | 3 | -1.86 | 44.8 | -1.35 |
| CDKN2AIP | 1 | 1.9 | 120 | 2.54 |
| CDKN2AIP | 2 | -0.786 | 66.3 | -0.759 |
| CDKN2AIP | 3 | -0.766 | 66.6 | -1.36 |
| C9 | 1 | 0.246 | 86.8 | 0.0469 |
| C9 | 2 | -0.779 | 66.4 | 0.678 |
| C9 | 3 | -0.923 | 63.5 | -0.499 |
| MEAK7 | 1 | -1.96 | 42.9 | -1.64 |
| MEAK7 | 2 | 0.148 | 84.8 | -0.382 |
| MEAK7 | 3 | 0.383 | 89.5 | -0.493 |
| MTPN | 1 | 0.601 | 93.8 | 0.426 |
| MTPN | 2 | -0.858 | 64.8 | -0.415 |
| MTPN | 3 | 3.37 (active) | 149 | 2.45 |
| SLC25A20 | 1 | 0.643 | 94.7 | 1.06 |
| SLC25A20 | 2 | -0.446 | 73 | -1.02 |
| SLC25A20 | 3 | -0.19 | 78.1 | -0.929 |
| CTDSP1 | 1 | -0.342 | 75.1 | 0.366 |
| CTDSP1 | 2 | -0.793 | 66.1 | -0.223 |
| CTDSP1 | 3 | -0.803 | 65.9 | -0.62 |
| LINC01599 | 1 | 0.617 | 94.2 | 0.069 |
| LINC01599 | 2 | 2.13 | 124 | 0.823 |
| LINC01599 | 3 | 0.319 | 88.2 | -0.403 |
| NAA15 | 1 | 1.79 | 117 | 1.33 |
| NAA15 | 2 | -0.922 | 63.6 | -0.306 |
| NAA15 | 3 | -2.44 | 33.4 | -2.18 |
| DMRTA2 | 1 | 0.458 | 91 | -0.0677 |
| DMRTA2 | 2 | 0.0495 | 82.9 | -0.0798 |
| DMRTA2 | 3 | 1.18 | 105 | 0.431 |
